Reference: PubChem BioAssay AID624291 (National Center for Advancing Translational Sciences (NCATS), 2012)
Hit rate of the full screen: of about 350,000 compounds, about 220 (0.063%) were called active. Entries that show only a call come without a potency. Inconclusive results, whose numbers are uncertain, are shown with a selection of clear calls. The call rests on the fitted dose curve; in most records, active means well fitted activation curve with a large enough effect; inconclusive means small, poorly fitted or top-dose-only effect; inactive means no such curve, though single readings can be large or run the other way. Where the call is inconclusive, the potency comes from a doubtful curve fit.

Experiment: qHTS for Activators of Integrin-Mediated Alleviation for Muscular Dystrophy; further: nearly all actives have a fitted effect of over 60% in size
Conditions: alpha7betagal myoblasts, beta-gal FDG fluorescence, 48 h; series mostly up to 38.3 µM
Procedure, shortened: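 Alpha7betagal+/- myoblasts (passage 13) were plated 16-24 hr, then exposed to compounds (1:260 dilution of DMSO stock) for 48 hours at 37C. After MPER lysis, β-galactosidase reporter activity was read as FDG fluorescence (ex 480/em 540) after 30 minutes.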
Potency means the concentration at half of the fitted maximal effect.

SMILES	Potency
COc1ccc(O)c2c(=O)c3c(OC)cc4c(c3oc12)C1C=COC1O4 (stereo unspecified)	inactive
C=CCn1c(O)c(C(C)=NC(C)c2ccccc2)c(=O)[nH]c1=O (stereo unspecified)	inconclusive: 3.55 µM [activator, single point]
O=C(COc1ccccc1)N1CCN(C2CCCC2)CC1	inactive
O=C(c1ccc2c(c1)N(Cc1ccc(F)cc1)CCS2)N1CCC2(CC1)OCCO2	inactive
CCOC(=O)c1cc(C)sc1/N=C/C1C(=O)NC(=S)NC1=O	inactive
CC(=O)c1c(C)n(C2CCCCC2)c2ccc(O)cc12	inconclusive: 3.55 µM [activator, partial curve, poor fit]
S=c1[nH]c2ccccc2[nH]1	inconclusive: 11.2 µM [activator, partial curve, poor fit]
CCN1CCN(C(=O)COc2ccc(S(=O)(=O)Nc3ccc(Cl)cc3)cc2)CC1	inconclusive: 0.501 µM [activator, full curve, poor fit]
O=C(NCC1=C(c2ccc3ccccc3c2)C[C@@H]2CC[C@H]1N2Cc1ccco1)c1nccs1	inactive
O=C(O)c1ccccc1N=Nc1c(O)[nH]c(=O)[nH]c1=O	inconclusive: 6.31 µM [activator, partial curve, poor fit]
Clc1cccc(CNCCc2c[nH]c3ccccc23)c1	inconclusive: 28.2 µM [activator, single point]
O=C(CCC(=O)N1CCC2(CC1)OCCO2)Nc1nnc(C2CCCCC2)s1	inactive
COCCCn1c(N)c(C(=O)Nc2ccccc2)c2nc3ccccc3nc21	inactive
CC1=C(O)C(=O)C=C2C1=CC=C1C2(C)CCC2(C)C3CC(C)(C(=O)O)CCC3(C)CCC12C (stereo unspecified)	inactive
CC[n+]1c(SC)ccc2cc(OC)ccc21	inconclusive: 31.6 µM [activator, single point]
CN(C)C(=O)Oc1ccc2c(c1)O/C(=C\c1cccc([N+](=O)[O-])c1)C2=O	inconclusive: 5.01 µM [activator, single point]
c1ccc(C(OCCN2CCN(c3ncccn3)CC2)c2ccccc2)cc1	inactive
COP(=O)(OC)C(NC(C)=O)C(Cl)(Cl)Cl (stereo unspecified)	inactive
O=C(N/N=C/c1c(O)n(CCC2=CCCCC2)c(=O)[nH]c1=O)c1ccccc1	inactive
C/C(CC(c1ccccc1)c1c(O)c2ccccc2oc1=O)=N\Nc1ccc([N+](=O)[O-])cc1[N+](=O)[O-] (stereo unspecified)	inconclusive: 12.6 µM [activator, single point]
CC12CCC3c4ccc(OC(=O)N(CCCl)CCCl)cc4CCC3C1CCC2O (stereo unspecified)	inactive

Random excerpt: 2 compounds from above
SMILES	Potency
c1ccc(C(OCCN2CCN(c3ncccn3)CC2)c2ccccc2)cc1	inactive
CC12CCC3c4ccc(OC(=O)N(CCCl)CCCl)cc4CCC3C1CCC2O (stereo unspecified)	inactive
